From US20210310005A1
These are yes or no findings as the source states them, for the method shown. Binding seen in cells or lysates may run through a third protein. Some entries that bind do so weakly or less than the wild type. Where a sequence is shown, tags or fusion partners need not be part of it.

By UniProt entry, the sequences of proteins in these tests, tags left out. Residues count along the entry.
UniProt P35579, residues 2-1960: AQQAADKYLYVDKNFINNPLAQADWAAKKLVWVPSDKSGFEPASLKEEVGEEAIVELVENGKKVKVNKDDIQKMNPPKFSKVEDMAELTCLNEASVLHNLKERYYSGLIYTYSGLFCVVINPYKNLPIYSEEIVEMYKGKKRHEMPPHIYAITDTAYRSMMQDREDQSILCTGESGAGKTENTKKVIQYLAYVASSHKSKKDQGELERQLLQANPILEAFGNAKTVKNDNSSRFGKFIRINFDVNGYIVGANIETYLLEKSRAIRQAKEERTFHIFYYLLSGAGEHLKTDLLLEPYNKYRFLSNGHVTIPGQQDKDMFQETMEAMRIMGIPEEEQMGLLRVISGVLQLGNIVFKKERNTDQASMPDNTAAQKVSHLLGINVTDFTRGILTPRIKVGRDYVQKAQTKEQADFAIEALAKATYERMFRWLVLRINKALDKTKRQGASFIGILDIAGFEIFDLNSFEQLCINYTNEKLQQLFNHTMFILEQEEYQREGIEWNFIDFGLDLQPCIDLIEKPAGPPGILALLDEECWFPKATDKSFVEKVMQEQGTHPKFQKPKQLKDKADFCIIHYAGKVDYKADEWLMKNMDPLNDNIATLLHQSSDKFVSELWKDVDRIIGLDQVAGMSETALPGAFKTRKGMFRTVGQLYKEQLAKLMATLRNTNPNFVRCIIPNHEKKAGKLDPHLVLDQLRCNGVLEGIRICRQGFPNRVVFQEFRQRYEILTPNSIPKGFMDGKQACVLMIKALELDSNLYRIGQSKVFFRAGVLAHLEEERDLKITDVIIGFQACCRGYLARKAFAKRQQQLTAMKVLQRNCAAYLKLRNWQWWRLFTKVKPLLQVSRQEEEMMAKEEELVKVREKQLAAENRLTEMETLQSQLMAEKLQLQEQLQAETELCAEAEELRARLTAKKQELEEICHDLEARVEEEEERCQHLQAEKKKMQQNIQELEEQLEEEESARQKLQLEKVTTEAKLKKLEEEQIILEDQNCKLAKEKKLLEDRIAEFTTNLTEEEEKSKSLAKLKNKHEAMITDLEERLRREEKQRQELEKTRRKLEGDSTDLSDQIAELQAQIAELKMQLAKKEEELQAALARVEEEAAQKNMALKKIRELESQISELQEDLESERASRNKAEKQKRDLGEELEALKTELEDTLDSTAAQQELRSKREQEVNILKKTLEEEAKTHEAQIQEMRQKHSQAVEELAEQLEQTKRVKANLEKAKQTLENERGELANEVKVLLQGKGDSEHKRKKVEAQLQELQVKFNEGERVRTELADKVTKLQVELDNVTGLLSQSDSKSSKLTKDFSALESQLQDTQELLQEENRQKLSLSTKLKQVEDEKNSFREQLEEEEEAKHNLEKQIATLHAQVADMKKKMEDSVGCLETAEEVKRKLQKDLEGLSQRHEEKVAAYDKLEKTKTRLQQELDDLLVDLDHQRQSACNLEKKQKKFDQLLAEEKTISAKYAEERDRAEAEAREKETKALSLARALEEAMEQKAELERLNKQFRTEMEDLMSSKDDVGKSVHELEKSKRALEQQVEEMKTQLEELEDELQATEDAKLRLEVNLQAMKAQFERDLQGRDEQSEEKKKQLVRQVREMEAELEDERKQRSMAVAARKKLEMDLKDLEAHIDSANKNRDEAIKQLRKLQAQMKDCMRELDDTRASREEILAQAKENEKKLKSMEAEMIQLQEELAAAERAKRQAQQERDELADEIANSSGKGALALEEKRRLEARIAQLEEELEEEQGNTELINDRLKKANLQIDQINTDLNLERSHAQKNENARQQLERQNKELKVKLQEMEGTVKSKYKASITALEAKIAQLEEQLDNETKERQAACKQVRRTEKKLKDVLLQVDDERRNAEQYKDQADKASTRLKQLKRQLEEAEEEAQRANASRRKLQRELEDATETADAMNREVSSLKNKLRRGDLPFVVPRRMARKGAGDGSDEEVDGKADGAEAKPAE

What was measured:
[1] = molecular target: non-muscle myosin IIA; NMIIA (MYH9) (human) (UniProt P35579); test: co-immunoprecipitation with anti-Myc antibody-binding carrier, SDS-PAGE and Western blot
[2] = molecular target: non-muscle myosin IIA; NMIIA (MYH9) (human) (UniProt P35579); test: co-immunoprecipitation from MDA-MB-231 lysate with anti-Myc magnetic beads, Western blot

B1: HSP47:Myc (HSP47 with a Myc tag, expressed from the pCMV6-HSP47-Myc plasmid in MDA-MB-231 cells) (protein, human, UniProt P50454 19-418, looked up, not shown: small tags and cut ends)
chain: AEVKKPAAAAAPGTAEKLSPKAATLAERSAGLAFSLYQAMAKDQAVENILVSPVVVASSLGLVSLGGKATTASQAKAVLSAEQLRDEEVHAGLGELLRSLSNSTARNVTWKLGSRLYGPSSVSFADDFVRSSKQHYNCEHSKINFRDKRSALQSINEWAAQTTDGKLPEVTKDVERTDGALLVNAMFFKPHWDEKFHHKMVDNRGFMVTRSYTVGVMMMHRTGLYNYYDDEKEKLQIVEMPLAHKLSSLIILMPHHVEPLERLEKLLTKEQLKIWMGKMQKKAVAISLPKGVVEVTHDLQKHLAGLGLTEAIDKNKADLSRMSGKKDLYLASVFHATAFELDTDGNPFDQDIYGREELRSPKLFYADHPFIFLVRDTQSGSLLFIGRLVRPKGDKMRDEL
binding [1]: binds | binding [2]: binds
